Consider 37 targets from the supplement of paper PMC11006884.

The chains behind the UniProt entries cited, without tags or fusion partners. Where a name states a change or a piece, a line headed by the entry shows the natural chain unless it says otherwise.
UniProt P52948: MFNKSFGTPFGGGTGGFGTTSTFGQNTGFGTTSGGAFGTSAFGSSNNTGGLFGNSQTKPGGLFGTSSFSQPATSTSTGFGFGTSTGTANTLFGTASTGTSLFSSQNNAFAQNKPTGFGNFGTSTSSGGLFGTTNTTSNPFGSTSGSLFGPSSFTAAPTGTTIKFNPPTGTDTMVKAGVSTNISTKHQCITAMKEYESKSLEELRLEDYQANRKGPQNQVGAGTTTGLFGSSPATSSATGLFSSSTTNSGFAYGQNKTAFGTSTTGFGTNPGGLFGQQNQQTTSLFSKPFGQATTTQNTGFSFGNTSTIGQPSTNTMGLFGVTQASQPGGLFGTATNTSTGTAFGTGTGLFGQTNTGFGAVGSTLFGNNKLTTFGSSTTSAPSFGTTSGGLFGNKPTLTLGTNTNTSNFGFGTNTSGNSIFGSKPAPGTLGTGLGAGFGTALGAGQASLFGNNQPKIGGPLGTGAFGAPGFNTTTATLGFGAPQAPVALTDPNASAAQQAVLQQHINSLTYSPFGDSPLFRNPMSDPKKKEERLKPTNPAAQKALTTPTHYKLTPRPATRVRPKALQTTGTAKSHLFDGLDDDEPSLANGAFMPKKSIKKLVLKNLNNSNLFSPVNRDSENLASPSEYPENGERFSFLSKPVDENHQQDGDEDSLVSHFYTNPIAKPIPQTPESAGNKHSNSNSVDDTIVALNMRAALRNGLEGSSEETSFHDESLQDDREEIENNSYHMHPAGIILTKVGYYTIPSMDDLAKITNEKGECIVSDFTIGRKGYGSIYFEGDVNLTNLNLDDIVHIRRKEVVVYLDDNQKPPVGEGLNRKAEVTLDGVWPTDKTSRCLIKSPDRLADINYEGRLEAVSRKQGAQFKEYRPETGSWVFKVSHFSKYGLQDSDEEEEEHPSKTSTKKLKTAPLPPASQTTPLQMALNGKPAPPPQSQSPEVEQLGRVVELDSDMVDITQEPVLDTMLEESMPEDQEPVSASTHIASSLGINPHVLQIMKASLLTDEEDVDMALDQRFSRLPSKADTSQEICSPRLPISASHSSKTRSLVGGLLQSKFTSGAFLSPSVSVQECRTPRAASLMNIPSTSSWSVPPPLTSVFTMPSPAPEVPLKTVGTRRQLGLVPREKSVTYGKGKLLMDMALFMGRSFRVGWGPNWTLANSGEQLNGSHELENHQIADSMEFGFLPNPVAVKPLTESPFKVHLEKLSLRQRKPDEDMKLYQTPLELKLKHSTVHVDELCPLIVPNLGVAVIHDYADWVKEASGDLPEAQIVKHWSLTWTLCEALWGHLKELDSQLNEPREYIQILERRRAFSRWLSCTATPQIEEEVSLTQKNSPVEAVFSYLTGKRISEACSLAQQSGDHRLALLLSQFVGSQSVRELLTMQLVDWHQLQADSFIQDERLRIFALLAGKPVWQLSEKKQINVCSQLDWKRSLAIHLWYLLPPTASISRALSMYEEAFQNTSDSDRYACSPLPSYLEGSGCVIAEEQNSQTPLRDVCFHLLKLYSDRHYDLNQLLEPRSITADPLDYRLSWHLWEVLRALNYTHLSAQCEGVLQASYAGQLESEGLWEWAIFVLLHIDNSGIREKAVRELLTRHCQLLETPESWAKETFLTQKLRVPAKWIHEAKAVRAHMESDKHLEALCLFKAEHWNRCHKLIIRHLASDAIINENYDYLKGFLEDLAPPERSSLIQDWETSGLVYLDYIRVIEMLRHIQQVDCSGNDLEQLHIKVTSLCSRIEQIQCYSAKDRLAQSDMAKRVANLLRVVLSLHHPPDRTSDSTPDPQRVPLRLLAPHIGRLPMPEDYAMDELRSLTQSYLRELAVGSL
UniProt P51659: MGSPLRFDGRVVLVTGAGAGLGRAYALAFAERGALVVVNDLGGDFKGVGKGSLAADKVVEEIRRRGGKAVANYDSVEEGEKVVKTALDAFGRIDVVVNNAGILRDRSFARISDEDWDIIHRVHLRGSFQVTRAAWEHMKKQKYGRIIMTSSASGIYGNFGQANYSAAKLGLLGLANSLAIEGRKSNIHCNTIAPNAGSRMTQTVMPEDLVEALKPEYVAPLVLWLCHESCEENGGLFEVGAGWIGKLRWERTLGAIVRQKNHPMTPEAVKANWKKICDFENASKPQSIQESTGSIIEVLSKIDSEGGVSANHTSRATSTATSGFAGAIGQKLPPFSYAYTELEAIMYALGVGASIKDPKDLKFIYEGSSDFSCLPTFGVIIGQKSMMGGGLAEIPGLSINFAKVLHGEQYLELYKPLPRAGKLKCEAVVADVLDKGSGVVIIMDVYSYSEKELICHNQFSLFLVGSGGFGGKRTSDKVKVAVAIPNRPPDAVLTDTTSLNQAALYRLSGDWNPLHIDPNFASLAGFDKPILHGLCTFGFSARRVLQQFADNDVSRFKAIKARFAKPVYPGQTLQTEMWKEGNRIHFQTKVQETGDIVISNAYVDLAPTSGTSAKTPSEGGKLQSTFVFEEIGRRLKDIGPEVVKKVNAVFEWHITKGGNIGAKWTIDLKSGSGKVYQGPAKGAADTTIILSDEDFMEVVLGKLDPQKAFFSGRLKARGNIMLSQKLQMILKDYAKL
UniProt P61163, whole entry, looked up: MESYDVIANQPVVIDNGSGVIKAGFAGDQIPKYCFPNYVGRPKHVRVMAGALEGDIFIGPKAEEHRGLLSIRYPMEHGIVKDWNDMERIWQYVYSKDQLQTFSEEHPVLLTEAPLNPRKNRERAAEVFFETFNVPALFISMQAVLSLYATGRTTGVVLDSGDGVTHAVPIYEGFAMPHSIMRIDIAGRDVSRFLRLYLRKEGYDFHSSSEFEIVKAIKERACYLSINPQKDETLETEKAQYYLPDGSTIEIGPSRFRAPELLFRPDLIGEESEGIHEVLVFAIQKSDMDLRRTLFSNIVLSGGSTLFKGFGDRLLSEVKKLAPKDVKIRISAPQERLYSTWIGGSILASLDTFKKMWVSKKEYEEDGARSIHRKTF
UniProt P60174, whole entry, looked up: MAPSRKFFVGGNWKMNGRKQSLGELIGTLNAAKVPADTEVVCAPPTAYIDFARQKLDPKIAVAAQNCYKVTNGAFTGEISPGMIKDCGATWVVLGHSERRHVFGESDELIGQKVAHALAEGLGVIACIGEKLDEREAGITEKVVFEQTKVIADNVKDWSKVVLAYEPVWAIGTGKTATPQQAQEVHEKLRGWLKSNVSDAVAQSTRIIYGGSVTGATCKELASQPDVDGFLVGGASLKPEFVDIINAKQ
UniProt P55268: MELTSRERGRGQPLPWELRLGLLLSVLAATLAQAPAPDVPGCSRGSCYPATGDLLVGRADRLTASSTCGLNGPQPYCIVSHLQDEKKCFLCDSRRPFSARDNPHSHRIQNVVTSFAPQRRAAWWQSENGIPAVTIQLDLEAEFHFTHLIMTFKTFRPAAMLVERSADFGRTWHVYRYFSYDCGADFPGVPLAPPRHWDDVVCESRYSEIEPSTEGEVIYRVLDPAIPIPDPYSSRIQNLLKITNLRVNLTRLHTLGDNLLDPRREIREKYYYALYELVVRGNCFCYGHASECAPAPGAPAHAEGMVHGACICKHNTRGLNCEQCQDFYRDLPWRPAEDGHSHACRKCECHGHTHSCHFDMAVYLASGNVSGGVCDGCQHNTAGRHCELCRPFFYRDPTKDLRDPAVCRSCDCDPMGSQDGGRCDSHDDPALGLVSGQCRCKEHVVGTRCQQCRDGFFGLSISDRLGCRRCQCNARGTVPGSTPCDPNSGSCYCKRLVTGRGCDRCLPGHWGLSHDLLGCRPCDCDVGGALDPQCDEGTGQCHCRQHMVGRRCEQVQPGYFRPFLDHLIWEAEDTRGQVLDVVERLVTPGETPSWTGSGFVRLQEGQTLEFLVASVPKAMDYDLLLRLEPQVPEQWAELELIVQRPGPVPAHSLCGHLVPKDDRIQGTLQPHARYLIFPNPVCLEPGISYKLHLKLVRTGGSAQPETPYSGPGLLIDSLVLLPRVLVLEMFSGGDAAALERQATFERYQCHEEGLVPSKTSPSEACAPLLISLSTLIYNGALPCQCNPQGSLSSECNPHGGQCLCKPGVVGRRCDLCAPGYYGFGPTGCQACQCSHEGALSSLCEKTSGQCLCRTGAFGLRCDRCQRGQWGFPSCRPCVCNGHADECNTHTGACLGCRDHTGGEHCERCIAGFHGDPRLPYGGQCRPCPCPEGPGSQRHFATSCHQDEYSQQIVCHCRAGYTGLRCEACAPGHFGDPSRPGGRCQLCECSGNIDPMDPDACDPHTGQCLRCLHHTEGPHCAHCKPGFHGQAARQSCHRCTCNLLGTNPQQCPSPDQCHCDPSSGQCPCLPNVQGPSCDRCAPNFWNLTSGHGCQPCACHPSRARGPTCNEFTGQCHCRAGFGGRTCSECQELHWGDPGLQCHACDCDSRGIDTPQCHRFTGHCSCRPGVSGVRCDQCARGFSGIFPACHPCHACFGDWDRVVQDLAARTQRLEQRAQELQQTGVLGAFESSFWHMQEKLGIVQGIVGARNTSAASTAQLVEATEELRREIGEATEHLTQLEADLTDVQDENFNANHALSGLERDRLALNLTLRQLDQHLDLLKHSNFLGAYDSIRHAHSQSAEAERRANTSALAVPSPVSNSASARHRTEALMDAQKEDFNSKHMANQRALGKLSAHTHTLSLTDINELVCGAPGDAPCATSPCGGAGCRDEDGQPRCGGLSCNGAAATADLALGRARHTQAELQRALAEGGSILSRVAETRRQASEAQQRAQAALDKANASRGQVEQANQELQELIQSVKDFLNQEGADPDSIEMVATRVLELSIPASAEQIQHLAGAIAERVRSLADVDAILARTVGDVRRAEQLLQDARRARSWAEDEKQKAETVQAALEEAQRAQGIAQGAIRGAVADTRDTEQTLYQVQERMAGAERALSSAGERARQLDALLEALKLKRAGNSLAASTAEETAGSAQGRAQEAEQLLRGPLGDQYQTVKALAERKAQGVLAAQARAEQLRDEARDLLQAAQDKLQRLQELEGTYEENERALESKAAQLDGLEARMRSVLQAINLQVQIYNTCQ
UniProt P56192: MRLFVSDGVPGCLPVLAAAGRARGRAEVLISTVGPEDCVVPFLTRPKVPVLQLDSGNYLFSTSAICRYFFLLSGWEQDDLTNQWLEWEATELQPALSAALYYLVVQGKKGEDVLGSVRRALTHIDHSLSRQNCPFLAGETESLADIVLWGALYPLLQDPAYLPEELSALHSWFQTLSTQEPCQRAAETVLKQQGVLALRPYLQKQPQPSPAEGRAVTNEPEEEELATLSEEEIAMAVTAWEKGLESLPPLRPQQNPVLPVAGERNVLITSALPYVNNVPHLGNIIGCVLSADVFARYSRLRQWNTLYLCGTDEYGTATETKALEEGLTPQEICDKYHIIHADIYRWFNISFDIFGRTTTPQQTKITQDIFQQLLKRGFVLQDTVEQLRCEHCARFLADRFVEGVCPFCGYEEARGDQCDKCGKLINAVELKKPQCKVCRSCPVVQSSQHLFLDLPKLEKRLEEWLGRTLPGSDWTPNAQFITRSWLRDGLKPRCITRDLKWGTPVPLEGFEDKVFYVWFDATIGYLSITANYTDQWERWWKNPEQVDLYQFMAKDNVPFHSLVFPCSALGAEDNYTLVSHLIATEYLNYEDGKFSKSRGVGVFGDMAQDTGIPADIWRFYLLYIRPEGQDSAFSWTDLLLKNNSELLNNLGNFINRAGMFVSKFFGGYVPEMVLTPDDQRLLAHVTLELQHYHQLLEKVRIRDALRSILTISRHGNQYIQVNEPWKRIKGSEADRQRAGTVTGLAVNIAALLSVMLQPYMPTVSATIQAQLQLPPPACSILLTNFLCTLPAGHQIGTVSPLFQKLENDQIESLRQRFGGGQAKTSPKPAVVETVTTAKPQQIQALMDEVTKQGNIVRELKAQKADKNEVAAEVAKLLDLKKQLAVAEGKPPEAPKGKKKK
UniProt P52888, whole entry, looked up: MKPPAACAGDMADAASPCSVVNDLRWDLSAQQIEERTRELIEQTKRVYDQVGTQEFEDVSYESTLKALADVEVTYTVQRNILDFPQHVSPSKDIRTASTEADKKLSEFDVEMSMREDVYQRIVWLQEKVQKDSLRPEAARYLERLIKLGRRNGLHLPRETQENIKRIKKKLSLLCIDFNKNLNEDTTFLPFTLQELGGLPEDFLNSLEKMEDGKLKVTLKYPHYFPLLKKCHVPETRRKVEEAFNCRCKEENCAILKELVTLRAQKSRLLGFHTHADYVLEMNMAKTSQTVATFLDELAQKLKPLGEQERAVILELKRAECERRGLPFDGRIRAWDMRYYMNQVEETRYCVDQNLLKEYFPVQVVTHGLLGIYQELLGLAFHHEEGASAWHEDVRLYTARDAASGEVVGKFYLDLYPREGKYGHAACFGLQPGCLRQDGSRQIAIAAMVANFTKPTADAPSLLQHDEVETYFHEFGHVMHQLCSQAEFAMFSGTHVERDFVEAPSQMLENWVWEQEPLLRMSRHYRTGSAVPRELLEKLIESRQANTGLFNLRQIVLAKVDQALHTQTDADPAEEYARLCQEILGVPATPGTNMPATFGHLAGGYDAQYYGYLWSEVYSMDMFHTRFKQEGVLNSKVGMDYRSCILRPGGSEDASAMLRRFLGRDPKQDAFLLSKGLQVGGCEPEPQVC

Most of the targets with a hit are listed elsewhere, so they are rarer here than in the full data. This is a noisy data set. This is a selection; strong and weak results do not stand in their true shares.

Compound in the assay: COC(=O)/C=C/c1ccccc1 [methyl cinnamate]
The assay can be described thus: log2 ratio of iodoacetamide-alkyne labeling of the cysteine site, DMSO over compound (competition); higher = stronger covalent engagement of the cysteine by the compound, active = 1 or more. The conditions noted are these: 500 µM; treatment time 1 h; system: HEK293T cell lysate. Summed up:
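For each cysteine, the log2 competition ratio is mean control-channel reporter intensity over mean compound-channel reporter intensity. HEK293T lysate (2 mg/mL) was exposed to vehicle or electrophile (500 µM, 1 h, ambient temperature), labelled with iodoacetamide alkyne (1 h), clicked to sCIP-TMT reagents, digested overnight with trypsin at 37 °C, streptavidin-enriched and analysed by Orbitrap Eclipse LC-MS/MS with FAIMS and FragPipe. Cysteines quantified in only one of three replicates, each with duplicate channels, were excluded.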
NUP98 C1312 (UniProt P52948): the “log2 ratio of iodoacetamide-alkyne labeling” value (“log2 ratio” for short) was inactive: 0.278.

HSD17B4 C277 (UniProt P51659): the “log2 ratio” value is inactive: -0.0676.

As for ADAR C125 (UniProt P55265), the “log2 ratio” value is inactive: 0.212.

Consider UniProt P61163_C222, for which the “log2 ratio” value was inactive: 0.078.

On to TPI1 C104 (UniProt P60174), for which the “log2 ratio” value was inactive: 0.172.

Turning to LAMB2 C47 (UniProt P55268), the “log2 ratio” value is inactive: 0.216.

Take RAP1GDS1 C85 (UniProt P52306): the “log2 ratio” value is inactive: -0.174.

Consider MARS C38 (UniProt P56192), for which the “log2 ratio” value is inactive: -0.107.

With COPB1 C284 (UniProt P53618), the “log2 ratio” value was inactive: 0.142.

Turning to CTBP2 C60 (UniProt P56545), the “log2 ratio” value is inactive: 0.394.

For POLR2F C76 (UniProt P61218), the “log2 ratio” value is inactive: 0.0278.

On to ACTR3 C34 (UniProt P61158), for which the “log2 ratio” value was inactive: 0.0744.

As to PSMD4 C58 (UniProt P55036), the “log2 ratio” value was inactive: -0.0215.

For the target MSH6 C615 (UniProt P52701), the “log2 ratio” value was inactive: 0.227.

With ALDH18A1 C88 (UniProt P54886), the “log2 ratio” value is inactive: 0.22.

Take PGD C422 (UniProt P52209): the “log2 ratio” value was inactive: -0.147.

In the case of PEX3 C65 (UniProt P56589), the “log2 ratio” value was inactive: 0.36.

For the target CSE1L C344 (UniProt P55060), the “log2 ratio” value was inactive: 0.384.

Take PMS2 C798 (UniProt P54278): the “log2 ratio” value was inactive: 0.119.

UniProt P62244_C72: the “log2 ratio” value is inactive: 0.318.

Consider CTBP2 C140 (UniProt P56545), for which the “log2 ratio” value is inactive: -0.259.

In the case of HNRNPM C114 (UniProt P52272), the “log2 ratio” value was inactive: -0.00706.

Take UniProt P55196_C942: the “log2 ratio” value was inactive: 0.24.

For UniProt P60604_C89, the “log2 ratio” value was inactive: 0.0553.

For NUP98 C1590 (UniProt P52948), the “log2 ratio” value was inactive: 0.223.

With EEFSEC C93 (UniProt P57772), the “log2 ratio” value was inactive: 0.205.

Consider NUP98 C1068 (UniProt P52948), for which the “log2 ratio” value was inactive: 0.243.

In the case of SUOX C310 (UniProt P51687), the “log2 ratio” value is inactive: 0.562.

On to SEC13 C245 (UniProt P55735), for which the “log2 ratio” value is inactive: 0.116.

Take UniProt P62241_C182: the “log2 ratio” value is inactive: 0.29.

For the target PPP5C C452 (UniProt P53041), the “log2 ratio” value was inactive: 0.128.

In the case of ALDH5A1 C340 (UniProt P51649), the “log2 ratio” value was inactive: 0.147.

With UniProt P60953_C157, the “log2 ratio” value was inactive: 0.273.

Regarding THOP1 C18 (UniProt P52888), the “log2 ratio” value is inactive: 0.552.

CSE1L C85 (UniProt P55060): the “log2 ratio” value was inactive: 0.0512.

With HCCS C178 (UniProt P53701), the “log2 ratio” value is inactive: 0.193.

As to MSH6 C108 (UniProt P52701), the “log2 ratio” value was inactive: -0.0141.
